No constants are given. Whether binding was seen depends on the method and setting. For part of these data: Binding seen in cells or lysates may run through a third protein. Some entries that bind do so weakly or less than the wild type.
Columns and labels:
[1] = molecular target: Hemoglobin scavenger receptor CD163 (membrane-bound) (mouse (endogenous in Townes mouse liver)) (UniProt Q2VLH6); assay: co-IP; SCD mouse liver tissue lysate; Pierce Direct IP kit, antibody cross-linked to resin (the methods name anti-TLR9 and normal mouse IgG), 4°C overnight, immunoblot; also livers after hypoxia, after LPS and of 7-mo-old SCD mice
[2] = molecular target: Hemoglobin scavenger receptor CD163 (membrane-bound) (mouse (endogenous in Townes mouse liver)) (UniProt Q2VLH6); assay: ELISA; sandwich: SCD mouse liver lysate applied to a plate coated with CD163-specific antibodies; antibodies to Hba or HO-1 or control IgG with HRP-conjugated secondary antibody; absorbance at 450 nm
[3] = molecular target: Hemoglobin scavenger receptor CD163 (membrane-bound) (mouse (endogenous in Townes mouse liver)) (UniProt Q2VLH6); assay: proximity ligation; fixed, permeabilised cryosections of control (AS) and SCD mouse liver; Duolink in situ detection reagent red; controls with just one primary antibody; confocal imaging

Chains of the proteins cited; added tags and fusions are not shown. Residues count along the entry.
UniProt Q2VLH6, residues 39-1121: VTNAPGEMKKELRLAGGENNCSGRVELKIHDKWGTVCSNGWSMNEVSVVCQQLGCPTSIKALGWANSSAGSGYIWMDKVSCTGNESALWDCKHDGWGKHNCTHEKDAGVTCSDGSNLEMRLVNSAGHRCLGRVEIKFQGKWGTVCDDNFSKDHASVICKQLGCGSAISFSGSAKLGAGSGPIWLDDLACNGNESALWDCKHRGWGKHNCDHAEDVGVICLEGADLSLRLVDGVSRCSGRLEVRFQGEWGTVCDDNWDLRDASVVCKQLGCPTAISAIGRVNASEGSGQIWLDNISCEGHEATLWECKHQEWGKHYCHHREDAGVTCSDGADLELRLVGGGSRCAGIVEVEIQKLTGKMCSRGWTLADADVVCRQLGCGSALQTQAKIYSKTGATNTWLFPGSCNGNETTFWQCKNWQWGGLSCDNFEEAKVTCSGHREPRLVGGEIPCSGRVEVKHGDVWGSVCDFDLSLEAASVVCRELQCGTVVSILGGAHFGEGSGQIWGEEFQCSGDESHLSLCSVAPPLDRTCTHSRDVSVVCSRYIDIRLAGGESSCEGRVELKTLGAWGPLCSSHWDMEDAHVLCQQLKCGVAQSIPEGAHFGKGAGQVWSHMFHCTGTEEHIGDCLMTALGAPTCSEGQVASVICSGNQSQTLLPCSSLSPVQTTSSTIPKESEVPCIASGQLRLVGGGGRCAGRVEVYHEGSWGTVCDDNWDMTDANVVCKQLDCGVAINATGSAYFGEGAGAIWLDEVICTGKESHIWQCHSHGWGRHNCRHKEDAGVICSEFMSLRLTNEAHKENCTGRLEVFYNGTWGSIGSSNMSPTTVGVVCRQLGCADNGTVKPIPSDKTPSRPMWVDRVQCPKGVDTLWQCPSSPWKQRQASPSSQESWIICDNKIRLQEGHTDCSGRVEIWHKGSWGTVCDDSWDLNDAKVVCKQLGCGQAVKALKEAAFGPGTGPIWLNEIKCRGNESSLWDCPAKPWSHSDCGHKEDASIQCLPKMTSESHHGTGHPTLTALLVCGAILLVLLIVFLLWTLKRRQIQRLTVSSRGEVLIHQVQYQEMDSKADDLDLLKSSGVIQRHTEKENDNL

Measured: binding

B1: heme oxygenase 1 (enzyme, UniProt P14901 1-289)
chain: MERPQPDSMPQDLSEALKEATKEVHIQAENAEFMKNFQKGQVSREGFKLVMASLYHIYTALEEEIERNKQNPVYAPLYFPEELHRRAALEQDMAFWYGPHWQEIIPCTPATQHYVKRLHEVGRTHPELLVAHAYTRYLGDLSGGQVLKKIAQKAMALPSSGEGLAFFTFPNIDSPTKFKQLYRARMNTLEMTPEVKHRVTEEAKTAFLLNIELFEELQVMLTEEHKDQSPSQMASLRQRPASLVQDTAPAETPRGKPQISTSSSQTPLLQWVLTLSFLLATVAVGIYAM
binds: [1] | [2] | [3]

Source: publication PMC11427010
